Series [1] has as its system AhR complex in SCC cell cytosol (Homo sapiens). The experiment in a line: EMSA. To be noted: 20 nM TCDD, ligand dependent, 35 ug cytosol; protein in an extract; protein details: cytosolic extract of human SCC cells; label: 32P end-label. On the technique in general: Mobility shift assays separate free from complexed probe on a gel.
Series [2] deals with AhR complex in Hepa 1c1c7 cytosol (Mus musculus). The experiment in a line: EMSA. To be noted: 20 nM TCDD, ligand dependent, 35 ug cytosol; protein in an extract; protein details: cytosolic extract of Hepa 1c1c7 cells; label: 32P end-label.

Construct, isoform or probe ends are uncertain for at least one entry. Where cells or extracts were used, other partners may take part.

On to “TCGAGTAGATCACGCAATGGGCCCAGC / TCGAGCTGGGCCCATTGCGTGATCTAC [DRE3]”, for which the binding result in series [1] and in series [2] was “binds” each time.

Values taken from patent US20050288488.
